Data: article PMC4451243
These are yes or no findings as the source states them, for the method shown. Binding seen in cells or lysates may run through a third protein. Some entries that bind do so weakly or less than the wild type.

By UniProt entry, the sequences of proteins in these tests, tags left out.
UniProt Q03468: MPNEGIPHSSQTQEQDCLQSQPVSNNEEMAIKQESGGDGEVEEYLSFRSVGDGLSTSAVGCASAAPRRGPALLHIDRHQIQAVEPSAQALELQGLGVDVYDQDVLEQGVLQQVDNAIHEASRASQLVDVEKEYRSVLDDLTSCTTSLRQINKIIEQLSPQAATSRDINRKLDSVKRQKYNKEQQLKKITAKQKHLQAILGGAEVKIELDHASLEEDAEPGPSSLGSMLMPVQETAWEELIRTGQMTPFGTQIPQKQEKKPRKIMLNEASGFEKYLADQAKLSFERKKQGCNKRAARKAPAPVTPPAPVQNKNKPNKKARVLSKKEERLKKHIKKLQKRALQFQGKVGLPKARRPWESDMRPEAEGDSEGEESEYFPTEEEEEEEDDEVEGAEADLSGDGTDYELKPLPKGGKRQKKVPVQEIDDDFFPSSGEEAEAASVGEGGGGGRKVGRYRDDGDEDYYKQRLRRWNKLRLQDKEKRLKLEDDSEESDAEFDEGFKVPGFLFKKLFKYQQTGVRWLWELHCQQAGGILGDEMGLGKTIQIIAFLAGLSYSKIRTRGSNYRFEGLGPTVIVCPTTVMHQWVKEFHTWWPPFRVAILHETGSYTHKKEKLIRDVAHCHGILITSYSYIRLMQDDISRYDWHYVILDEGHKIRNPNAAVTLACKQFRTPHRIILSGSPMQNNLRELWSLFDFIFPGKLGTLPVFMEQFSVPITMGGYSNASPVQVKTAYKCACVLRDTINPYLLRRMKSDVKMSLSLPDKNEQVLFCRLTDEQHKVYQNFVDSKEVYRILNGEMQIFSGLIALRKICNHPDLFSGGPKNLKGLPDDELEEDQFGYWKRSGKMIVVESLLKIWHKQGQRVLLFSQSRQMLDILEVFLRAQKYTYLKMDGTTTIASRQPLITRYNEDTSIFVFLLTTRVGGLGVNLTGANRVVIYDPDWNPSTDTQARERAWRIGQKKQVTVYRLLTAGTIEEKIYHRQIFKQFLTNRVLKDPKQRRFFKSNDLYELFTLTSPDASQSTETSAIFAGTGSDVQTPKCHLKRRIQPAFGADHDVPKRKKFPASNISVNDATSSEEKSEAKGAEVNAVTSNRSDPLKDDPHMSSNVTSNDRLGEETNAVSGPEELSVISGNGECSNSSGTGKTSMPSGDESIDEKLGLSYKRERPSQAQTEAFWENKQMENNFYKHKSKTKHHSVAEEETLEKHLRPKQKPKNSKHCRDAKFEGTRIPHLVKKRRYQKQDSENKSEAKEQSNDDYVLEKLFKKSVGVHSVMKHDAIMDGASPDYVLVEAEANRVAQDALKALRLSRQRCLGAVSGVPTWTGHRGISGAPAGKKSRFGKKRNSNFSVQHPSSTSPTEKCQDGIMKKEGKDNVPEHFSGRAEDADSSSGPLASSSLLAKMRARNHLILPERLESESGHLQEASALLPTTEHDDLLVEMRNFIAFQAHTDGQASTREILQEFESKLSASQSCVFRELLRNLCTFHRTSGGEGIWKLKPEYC
UniProt Q86VP6: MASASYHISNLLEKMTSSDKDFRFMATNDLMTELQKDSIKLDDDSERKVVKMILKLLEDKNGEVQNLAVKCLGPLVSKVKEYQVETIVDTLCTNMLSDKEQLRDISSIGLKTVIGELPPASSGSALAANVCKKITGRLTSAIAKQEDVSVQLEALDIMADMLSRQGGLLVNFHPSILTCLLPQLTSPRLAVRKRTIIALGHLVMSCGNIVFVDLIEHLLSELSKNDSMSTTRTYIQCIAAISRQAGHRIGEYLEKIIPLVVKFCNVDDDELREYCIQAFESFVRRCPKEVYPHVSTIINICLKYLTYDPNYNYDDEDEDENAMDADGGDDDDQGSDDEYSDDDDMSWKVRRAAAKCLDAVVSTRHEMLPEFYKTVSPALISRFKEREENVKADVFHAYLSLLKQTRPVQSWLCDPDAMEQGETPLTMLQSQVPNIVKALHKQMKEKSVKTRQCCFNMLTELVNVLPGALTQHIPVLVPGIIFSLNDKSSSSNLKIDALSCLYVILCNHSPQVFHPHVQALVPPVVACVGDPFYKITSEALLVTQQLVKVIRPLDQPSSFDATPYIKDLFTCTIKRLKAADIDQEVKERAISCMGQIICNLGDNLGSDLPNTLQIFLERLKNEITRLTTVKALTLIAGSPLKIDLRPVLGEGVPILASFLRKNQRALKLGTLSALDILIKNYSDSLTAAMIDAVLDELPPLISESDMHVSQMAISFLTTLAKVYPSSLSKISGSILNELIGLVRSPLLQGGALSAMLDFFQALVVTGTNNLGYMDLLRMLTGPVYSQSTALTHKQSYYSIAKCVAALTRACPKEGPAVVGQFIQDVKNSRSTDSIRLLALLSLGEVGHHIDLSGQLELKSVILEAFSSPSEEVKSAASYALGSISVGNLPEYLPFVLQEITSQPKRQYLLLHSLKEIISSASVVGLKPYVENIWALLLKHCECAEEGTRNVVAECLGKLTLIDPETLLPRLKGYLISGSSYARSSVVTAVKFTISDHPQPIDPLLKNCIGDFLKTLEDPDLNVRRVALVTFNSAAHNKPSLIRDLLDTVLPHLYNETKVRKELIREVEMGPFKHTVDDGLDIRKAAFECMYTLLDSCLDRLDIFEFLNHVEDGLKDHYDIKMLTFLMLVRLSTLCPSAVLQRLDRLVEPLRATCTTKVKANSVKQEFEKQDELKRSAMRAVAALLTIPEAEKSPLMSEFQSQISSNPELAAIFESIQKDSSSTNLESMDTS
UniProt Q92841: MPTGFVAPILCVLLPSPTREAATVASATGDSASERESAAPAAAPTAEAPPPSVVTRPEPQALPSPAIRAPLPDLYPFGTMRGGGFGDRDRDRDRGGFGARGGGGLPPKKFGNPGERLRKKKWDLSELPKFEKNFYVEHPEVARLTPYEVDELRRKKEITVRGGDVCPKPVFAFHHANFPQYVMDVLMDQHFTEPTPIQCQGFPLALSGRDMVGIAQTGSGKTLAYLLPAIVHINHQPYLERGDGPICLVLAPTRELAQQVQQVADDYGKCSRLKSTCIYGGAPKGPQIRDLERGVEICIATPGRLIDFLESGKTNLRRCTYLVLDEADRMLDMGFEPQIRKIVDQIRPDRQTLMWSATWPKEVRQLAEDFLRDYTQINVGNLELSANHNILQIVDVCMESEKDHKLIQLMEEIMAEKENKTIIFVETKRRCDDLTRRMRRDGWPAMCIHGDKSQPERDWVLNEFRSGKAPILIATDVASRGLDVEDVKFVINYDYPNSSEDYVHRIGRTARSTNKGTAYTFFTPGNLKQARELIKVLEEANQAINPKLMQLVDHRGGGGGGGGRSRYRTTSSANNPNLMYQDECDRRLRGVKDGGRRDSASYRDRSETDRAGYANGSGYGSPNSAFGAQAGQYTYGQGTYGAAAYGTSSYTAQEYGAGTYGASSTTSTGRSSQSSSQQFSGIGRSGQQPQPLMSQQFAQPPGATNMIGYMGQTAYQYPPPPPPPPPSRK
UniProt Q09028: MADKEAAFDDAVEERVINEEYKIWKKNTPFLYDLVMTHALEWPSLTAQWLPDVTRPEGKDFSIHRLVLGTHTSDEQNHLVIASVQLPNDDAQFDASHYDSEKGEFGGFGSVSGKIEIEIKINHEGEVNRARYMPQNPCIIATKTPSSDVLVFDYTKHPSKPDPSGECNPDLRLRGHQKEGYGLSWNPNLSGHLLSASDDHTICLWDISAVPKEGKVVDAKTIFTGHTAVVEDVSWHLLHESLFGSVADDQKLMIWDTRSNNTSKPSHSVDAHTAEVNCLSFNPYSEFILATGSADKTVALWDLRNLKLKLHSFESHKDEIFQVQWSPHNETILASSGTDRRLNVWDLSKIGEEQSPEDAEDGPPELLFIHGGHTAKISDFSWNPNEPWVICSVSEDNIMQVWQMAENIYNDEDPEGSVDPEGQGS
UniProt P28370: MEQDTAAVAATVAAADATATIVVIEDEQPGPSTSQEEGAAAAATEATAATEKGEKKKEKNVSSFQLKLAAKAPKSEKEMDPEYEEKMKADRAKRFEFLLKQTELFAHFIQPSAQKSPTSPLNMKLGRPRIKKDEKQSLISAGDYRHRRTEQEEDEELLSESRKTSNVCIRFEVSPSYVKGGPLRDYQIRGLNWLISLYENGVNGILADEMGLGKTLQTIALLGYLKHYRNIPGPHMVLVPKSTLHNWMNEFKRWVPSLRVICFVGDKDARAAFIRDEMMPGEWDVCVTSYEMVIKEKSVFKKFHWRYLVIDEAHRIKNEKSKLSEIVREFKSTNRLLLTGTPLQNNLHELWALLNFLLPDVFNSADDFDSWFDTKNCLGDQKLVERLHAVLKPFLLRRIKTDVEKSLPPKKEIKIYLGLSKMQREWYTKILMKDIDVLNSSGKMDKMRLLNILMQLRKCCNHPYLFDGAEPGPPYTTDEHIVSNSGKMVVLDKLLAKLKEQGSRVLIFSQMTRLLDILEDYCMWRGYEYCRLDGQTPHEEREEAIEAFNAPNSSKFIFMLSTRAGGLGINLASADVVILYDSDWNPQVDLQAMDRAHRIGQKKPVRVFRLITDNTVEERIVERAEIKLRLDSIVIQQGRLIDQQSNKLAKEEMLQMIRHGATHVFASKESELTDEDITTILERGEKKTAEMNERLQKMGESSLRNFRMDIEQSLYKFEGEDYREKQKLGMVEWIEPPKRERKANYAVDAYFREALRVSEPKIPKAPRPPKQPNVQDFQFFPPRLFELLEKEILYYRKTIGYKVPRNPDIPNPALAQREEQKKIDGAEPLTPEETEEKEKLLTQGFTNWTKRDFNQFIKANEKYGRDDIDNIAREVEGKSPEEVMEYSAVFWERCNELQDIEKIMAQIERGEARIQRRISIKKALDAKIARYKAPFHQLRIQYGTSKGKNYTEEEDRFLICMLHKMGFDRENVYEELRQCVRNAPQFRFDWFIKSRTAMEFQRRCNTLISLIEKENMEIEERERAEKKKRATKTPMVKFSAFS
UniProt Q13200: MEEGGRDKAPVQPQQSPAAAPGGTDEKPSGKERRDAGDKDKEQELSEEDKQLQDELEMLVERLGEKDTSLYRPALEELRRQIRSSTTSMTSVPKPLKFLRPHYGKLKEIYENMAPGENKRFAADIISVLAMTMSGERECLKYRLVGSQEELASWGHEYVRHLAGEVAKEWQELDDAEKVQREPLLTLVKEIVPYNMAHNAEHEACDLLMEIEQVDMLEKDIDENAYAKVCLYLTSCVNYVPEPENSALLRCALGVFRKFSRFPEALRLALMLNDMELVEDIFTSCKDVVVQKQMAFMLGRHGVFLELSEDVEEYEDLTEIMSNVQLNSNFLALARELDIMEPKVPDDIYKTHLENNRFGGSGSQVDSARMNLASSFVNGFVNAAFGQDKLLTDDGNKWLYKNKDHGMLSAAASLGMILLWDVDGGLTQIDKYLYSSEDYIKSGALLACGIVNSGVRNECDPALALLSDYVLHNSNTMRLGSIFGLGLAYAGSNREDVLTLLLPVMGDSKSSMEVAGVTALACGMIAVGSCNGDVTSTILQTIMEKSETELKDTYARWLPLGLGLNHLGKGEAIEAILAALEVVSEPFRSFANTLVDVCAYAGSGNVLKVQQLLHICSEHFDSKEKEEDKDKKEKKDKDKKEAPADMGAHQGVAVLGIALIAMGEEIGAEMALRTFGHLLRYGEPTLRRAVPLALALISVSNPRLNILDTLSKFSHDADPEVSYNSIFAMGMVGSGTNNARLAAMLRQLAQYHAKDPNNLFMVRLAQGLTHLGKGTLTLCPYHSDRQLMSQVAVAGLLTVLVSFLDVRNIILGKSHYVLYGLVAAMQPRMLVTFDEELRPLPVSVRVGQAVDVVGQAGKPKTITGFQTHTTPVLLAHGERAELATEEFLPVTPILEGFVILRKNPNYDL
UniProt P11387: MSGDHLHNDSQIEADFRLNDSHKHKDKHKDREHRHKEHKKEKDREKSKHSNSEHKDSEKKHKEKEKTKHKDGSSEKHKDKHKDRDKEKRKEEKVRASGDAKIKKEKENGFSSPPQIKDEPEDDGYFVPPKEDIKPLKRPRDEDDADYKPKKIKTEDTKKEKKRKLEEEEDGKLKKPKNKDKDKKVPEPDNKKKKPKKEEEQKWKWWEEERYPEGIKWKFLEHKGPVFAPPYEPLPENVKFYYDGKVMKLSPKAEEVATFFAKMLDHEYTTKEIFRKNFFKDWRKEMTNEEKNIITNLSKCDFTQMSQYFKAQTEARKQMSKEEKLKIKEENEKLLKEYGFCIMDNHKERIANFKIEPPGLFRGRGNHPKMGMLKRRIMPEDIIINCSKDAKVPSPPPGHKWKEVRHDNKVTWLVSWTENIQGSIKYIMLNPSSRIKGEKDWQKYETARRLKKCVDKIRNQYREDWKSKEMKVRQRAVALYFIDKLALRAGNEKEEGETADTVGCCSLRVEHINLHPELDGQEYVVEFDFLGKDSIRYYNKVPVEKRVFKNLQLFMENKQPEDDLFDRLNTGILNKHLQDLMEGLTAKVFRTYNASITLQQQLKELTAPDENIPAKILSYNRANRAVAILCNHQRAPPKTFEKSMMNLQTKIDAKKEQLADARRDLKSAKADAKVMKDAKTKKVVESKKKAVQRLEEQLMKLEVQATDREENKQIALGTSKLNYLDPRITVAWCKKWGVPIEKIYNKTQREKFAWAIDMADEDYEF

What follows are substances tested against Flag-tagged CSB (human) (UniProt Q03468) (assay: co-IP; lysates (RIPA buffer) of CSIAN cells co-transfected with Flag-tagged CSB and a Myc-tagged protein, 24 hr post transfection; anti-Flag M2-agarose overnight; Western blot with anti-Myc).

Row | Substance | binding
1 | Myc-tagged CAND1 (from UniProt Q86VP6 1-1230) | binds
2 | Myc-tagged DDX5 (from UniProt P17844 1-614) | binds
3 | Myc-tagged DDX17 (from UniProt Q92841 1-729) | binds
4 | Myc-tagged HDAC1 (from UniProt Q13547 1-482) | binds
5 | Myc-tagged RBBP4 (from UniProt Q09028 1-425) | binds
6 | Myc-tagged SMARCA1 (from UniProt P28370 1-1042) | binds
7 | Myc-tagged USP7 (from UniProt Q93009 1-1102) | binds
8 | Myc-tagged XRCC5 (from UniProt P13010 1-732) | binds

The remaining lines, values ahead:

Row | binding | Substance
9 | binds | Myc-tagged DDX3X (from UniProt O00571 1-662)
10 | no binding | Myc-tagged PSMD2 (from UniProt Q13200 1-908)
11 | binds | Myc-tagged PSMD3 (from UniProt O43242 1-534)
12 | binds weakly | Myc-tagged SMARCA2 (from UniProt P51531 1-1590)
13 | binds | Myc-tagged TOP1 (from UniProt P11387 1-765)
